# Results from one PubChem assay

Source: PubChem BioAssay AID1159506 (NCATS, 2015).

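Genome-wide siRNA knockdown in TC32 Ewing sarcoma cells, comparing luciferase light from an NR0B1-promoter reporter with a CMV-promoter reporter 48 hours after transfection. Each siRNA was applied at 20 nM. A z-score of the log NR0B1-over-CMV signal, less the median of siRNAs with the same seed; more negative means a stronger specific loss of the NR0B1 reporter.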

This is part of the screen; most of the strongest results are not listed here. Sequences are the guide (antisense) strand, without overhang.

- UUAGCUCCAAACAUGAUCC against GBA2 : seed-corrected z-score 0.1525
- UGUGAAACCAGCACCAGUU against CLN8 : seed-corrected z-score 0.6664
- UUAUCCAACAGCUCGAUUG against MAP4K3 : seed-corrected z-score 0.2111
- UCAGAAACCUGACCAGGCC against CPTP : seed-corrected z-score 0.5573
- UGAGGAUAUAGGUGGUUGC against P2RY10 : seed-corrected z-score -0.3102
- UUUCGGCAAAGGUAACGGG against TRIM29 : seed-corrected z-score -0.05223
- UGAGUUGUAAAGGUCUGCC against SP1 : seed-corrected z-score -1.482
- AUUGAUCCUAUGAAUCAGC against DBR1 : seed-corrected z-score -0.09874
- UACUGAUAACUUAACAUGC against METTL18 : seed-corrected z-score 0.1449
- AGAUGUACUCUCGAUGCUG against KIAA1217 : seed-corrected z-score -1.528
- UCAGGUCGUUGCAUAGACG against PACSIN1 : seed-corrected z-score 0.1723
- UCCGAUAUAAAGACAGCAG against NVL : seed-corrected z-score -0.4423
- UUGCAUAAUAUGGAGCUUC against TEDDM1 : seed-corrected z-score 0.1406
- AAUUCCUUAAAAUCCAACG against KCTD6 : seed-corrected z-score -0.9125
- UCCUGGUUCAUGACCACCU against WNT2 : seed-corrected z-score -0.6291
- UGUUCUCACAGAAGUAUGC against TNFRSF13B : seed-corrected z-score 0.1079
- UCGACUUUGAUUCUUCCCG against KRT23 : seed-corrected z-score 0.7402
- AUACUAUCCACAACAUCUG against TICRR : seed-corrected z-score -0.04716
- UGAUGCUUGAGUGAAAACC against ZBTB32 : seed-corrected z-score -0.6747
- UGACCAACAUCUGUGGGAC against OR2U1P : seed-corrected z-score -0.5718
- UUAGGCUUAAAGAAAUGUC against CASC10 : seed-corrected z-score 0.8277
- UUCACCAUCAGCGUGUUGC against SHANK1 : seed-corrected z-score 0.2364
- UAACCAAUCUUUCGGAUGC against GRIA1 : seed-corrected z-score 0.5642
- UACAGAAUAACAGGGUCGC against TM9SF1 : seed-corrected z-score -0.237
- AAUGAACCCACAGAGAACG against PAOX : seed-corrected z-score 0.2718
- AACUUGCGCACAAAUGCUC against NRP2 : seed-corrected z-score -0.2867
- UUCUUGUUCAGGUCCUCCC against TAOK2 : seed-corrected z-score -0.2464
- AAUGCUAUAAAACCUAUAG against LIPA : seed-corrected z-score -0.6972
- UGCAUUCUCAUUGCUGUCC against PCDHGA1 : seed-corrected z-score 0.1705
- UCAGGGUCCAGCUUGUAGA against MYO1G : seed-corrected z-score -0.3631
- UAGAGGACGAGCACCAGCA against OPN3 : seed-corrected z-score -1.218
- UCUUGUCUUAGAACACUCG against ESF1 : seed-corrected z-score 0.7132
- AACAGGACCUCUCUAGGGC against PRSS56 : seed-corrected z-score -1.952
- UUUGCAUAUAGGGAACAUC against CLDN10 : seed-corrected z-score -0.4468
- UUUCGAAACAUCUCUAUUC against STAG1 : seed-corrected z-score 1.243
- UAAUCUGUAACUUCGGUUC against FBRSL1 : seed-corrected z-score -1.41
- AGUUCAGUCACAUUCAUGC against RHOXF2 : seed-corrected z-score 0.09421
- AUUCGAAACCCAUUCGUUC against LOC441239 : seed-corrected z-score 0.283
- UUUGAUGAUUCGCUGAUCU against KLHL36 : seed-corrected z-score -0.8539